Assay results reported in US20190077844A1.
Where a chain is given by its changes, count along the chain named. These are yes or no findings as the source states them, for the method shown. A result given as binding can be weak or reduced; the word gives no strength. Each block holds one binder with its values, some of them ahead of it.

Sequences of proteins named here, by UniProt entry; tags and fusion partners are left off. A change or cut given only in a name is not applied to a line headed by its entry.
UniProt Q8CFZ4: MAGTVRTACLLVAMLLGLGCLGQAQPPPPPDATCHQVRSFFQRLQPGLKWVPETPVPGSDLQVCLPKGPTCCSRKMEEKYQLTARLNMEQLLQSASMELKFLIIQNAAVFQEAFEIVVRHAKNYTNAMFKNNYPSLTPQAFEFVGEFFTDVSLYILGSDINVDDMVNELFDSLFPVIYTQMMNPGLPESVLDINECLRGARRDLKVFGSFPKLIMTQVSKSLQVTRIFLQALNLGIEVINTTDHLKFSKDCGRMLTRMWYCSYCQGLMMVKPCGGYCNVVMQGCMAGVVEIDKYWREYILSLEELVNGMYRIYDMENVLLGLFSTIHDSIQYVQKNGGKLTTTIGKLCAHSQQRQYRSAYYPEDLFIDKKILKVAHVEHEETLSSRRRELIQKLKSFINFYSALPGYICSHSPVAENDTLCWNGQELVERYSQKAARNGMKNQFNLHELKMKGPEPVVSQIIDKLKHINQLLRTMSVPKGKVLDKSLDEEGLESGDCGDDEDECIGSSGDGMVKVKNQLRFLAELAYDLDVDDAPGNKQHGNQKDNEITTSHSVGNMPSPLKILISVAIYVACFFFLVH

Molecular target: Recombinant murine glypican-3 (aa 25-557) (R&D Systems) (murine) (UniProt Q8CFZ4)
Test: SPR (Biacore T100)

B1: 6077_F02-FITC (designed binder)
chain: MGVSDVPRDLEVVAATPTSLLISWSDDYHAHRYYRITYGETGGNSPVQEFTVPGEHVTATISGLKPGVDYTITVYAVTYDGEKAATDWSISINYRTPCHHHHHH
modifications: fluorescein-5-maleimide on the cysteine
- binding: binds

B2: 6077_F02.dPEG (designed binder)
chain: B1 chain
modifications: dPEG (site and size not stated)
- binding: binds

B3: 6077_F02-PEG3.4 (designed binder)
chain: B1 chain
modifications: PEG3.4 (site not stated)
- binding: binds

B4: ADX_6077_F02 DG→DA mutant, alkylated (designed binder)
chain: GVSDVPRDLEVVAATPTSLLISWSDDYHAHRYYRITYGETGGNSPVQEFTVPGEHVTATISGLKPGVDYTITVYAVTYDAEKAATDWSISINYRTPC
modifications: C-terminal cysteine alkylated
- binding: binds

B7: ADX_6077_F02 DG→AG mutant, alkylated (designed binder)
chain: B4 chain with D79A, A80G
modifications: C-terminal cysteine alkylated
- binding: binds

B9: ADX_6077_F02 DG→DL mutant, alkylated (designed binder)
chain: B4 chain with A80L
modifications: C-terminal cysteine alkylated
- binding: binds

Continued, values first:

- binding: binds
B5: ADX_6077_F02 DG→DS mutant, alkylated (designed binder)
chain: B4 chain with A80S
modifications: C-terminal cysteine alkylated

- binding: binds
B6: ADX_6077_F02 DG→DV mutant, alkylated (designed binder)
chain: B4 chain with A80V
modifications: C-terminal cysteine alkylated

- binding: binds
B8: ADX_6077_F02 DG→EG mutant, alkylated (designed binder)
chain: B4 chain with D79E, A80G
modifications: C-terminal cysteine alkylated

- binding: binds
B10: ADX_6077_F02 DG→SG mutant, alkylated (designed binder)
chain: VSDVPRDLEVVAATPTSLLISWSDDYHAHRYYRITYGETGGNSPVQEFTVPGEHVTATISGLKPGVDYTITVYAVTYSGEKAATDWSISINYRTPC
modifications: C-terminal cysteine alkylated
